No constants are given. Whether binding was seen depends on the method and setting. Some binding calls cover weakened binding; strength is not graded here. Tags and fused reporters may be left off the sequences shown.

The target of test [1] is Solanum tuberosum REMORIN1.3 (StREM1.3), wild type, split-ubiquitin yeast two-hybrid fusion (Solanum tuberosum) (UniProt P93788). The test is described as follows: two-hybrid.
Test [2] addresses T1, StREM1.3^(S74D T86D S91D) phosphomimic variant, split-ubiquitin yeast two-hybrid bait (Solanum tuberosum) (UniProt P93788).
T1 sequence: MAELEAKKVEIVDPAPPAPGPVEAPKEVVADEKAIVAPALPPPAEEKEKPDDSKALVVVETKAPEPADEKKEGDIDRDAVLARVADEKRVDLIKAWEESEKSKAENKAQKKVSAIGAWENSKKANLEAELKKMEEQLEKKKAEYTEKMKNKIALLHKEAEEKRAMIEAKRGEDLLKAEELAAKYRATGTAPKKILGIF
The test is described as follows: two-hybrid.

B1: Solanum tuberosum REMORIN1.3 (StREM1.3), wild type, split-ubiquitin yeast two-hybrid fusion (protein, UniProt P93788 1-198)
chain: MAELEAKKVEIVDPAPPAPGPVEAPKEVVADEKAIVAPALPPPAEEKEKPDDSKALVVVETKAPEPADEKKEGSIDRDAVLARVATEKRVSLIKAWEESEKSKAENKAQKKVSAIGAWENSKKANLEAELKKMEEQLEKKKAEYTEKMKNKIALLHKEAEEKRAMIEAKRGEDLLKAEELAAKYRATGTAPKKILGIF
In the case of B1, the binding result in test [1] and in test [2] was “binds” each time.

Values taken from article doi:10.1101/2023.01.25.525625.
